Patent US20160176970A1 (published 2016)
Results are given in words; binding and its absence hold for the method and conditions named. Some results given as binding are weak or reduced against the parent protein; the word gives no strength.

By UniProt entry, the sequences of proteins in these tests, tags left out. Where a name states a change or a piece, a line headed by the entry shows the natural chain unless it says otherwise.
UniProt P17301: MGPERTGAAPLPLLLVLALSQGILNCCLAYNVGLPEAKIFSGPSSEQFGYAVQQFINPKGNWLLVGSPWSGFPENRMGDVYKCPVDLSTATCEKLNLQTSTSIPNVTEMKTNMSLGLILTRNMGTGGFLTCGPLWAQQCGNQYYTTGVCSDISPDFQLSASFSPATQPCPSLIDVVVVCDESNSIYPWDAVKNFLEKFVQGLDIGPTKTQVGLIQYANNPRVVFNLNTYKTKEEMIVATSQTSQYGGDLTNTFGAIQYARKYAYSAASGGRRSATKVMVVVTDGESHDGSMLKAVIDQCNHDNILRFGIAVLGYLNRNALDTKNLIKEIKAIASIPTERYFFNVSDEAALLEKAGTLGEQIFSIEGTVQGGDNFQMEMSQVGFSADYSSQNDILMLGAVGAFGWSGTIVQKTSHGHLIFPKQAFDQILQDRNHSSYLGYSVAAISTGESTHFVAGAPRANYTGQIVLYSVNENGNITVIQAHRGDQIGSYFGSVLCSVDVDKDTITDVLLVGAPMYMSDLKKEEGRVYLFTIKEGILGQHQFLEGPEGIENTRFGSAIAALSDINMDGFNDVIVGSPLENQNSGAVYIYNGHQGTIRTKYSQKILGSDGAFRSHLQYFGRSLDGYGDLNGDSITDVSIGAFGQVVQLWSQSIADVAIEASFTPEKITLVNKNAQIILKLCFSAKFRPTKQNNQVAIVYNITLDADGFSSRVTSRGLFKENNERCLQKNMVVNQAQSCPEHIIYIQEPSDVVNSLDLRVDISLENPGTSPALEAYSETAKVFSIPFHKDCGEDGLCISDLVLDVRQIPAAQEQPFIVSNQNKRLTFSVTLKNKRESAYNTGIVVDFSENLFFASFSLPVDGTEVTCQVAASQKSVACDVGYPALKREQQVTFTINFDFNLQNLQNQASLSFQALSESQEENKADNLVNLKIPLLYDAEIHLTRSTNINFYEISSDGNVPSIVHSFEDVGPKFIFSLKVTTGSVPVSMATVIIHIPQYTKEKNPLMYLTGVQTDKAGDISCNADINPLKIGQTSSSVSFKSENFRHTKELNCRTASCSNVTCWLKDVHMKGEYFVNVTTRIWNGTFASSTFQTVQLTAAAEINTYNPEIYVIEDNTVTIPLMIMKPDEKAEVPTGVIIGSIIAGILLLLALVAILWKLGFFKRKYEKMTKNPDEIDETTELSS

Legend:
[1] = target: integrin α2 I domain (recombinant, analyte of the Biacore experiments) (human) (UniProt P17301); test: SPR Biacore 3000; TMC2206 captured by anti-human Fc (MAB1302), I domain bound, Fab injected
[2] = target: integrin α2 I domain (recombinant, analyte of the Biacore experiments) (human) (UniProt P17301); test: SPR Biacore 3000
[3] = target: integrin α2 I domain (recombinant, analyte of the Biacore experiments) (human) (UniProt P17301); test: SPR Biacore; TMC2206 captured by anti-human Fc, I domain bound, Fab injected
[4] = target: integrin α2 I domain (recombinant, analyte of the Biacore experiments) (human) (UniProt P17301); test: SPR Biacore; Fab immobilised, I domain captured, TMC2206 injected
[5] = target: integrin α2 I domain (recombinant, analyte of the Biacore experiments) (human) (UniProt P17301); test: SPR Biacore, dissociation constants (FIG. 11)
[6] = target: integrin α2 I domain (recombinant, analyte of the Biacore experiments) (human) (UniProt P17301); test: SPR Biacore 3000; Fab amine-coupled at 500 RU, I domain captured, TMC2206 injected

Measured: binding

B1: chimeric anti α2-integrin-Fab (Fab, V domains shown)
VH: QVQLHQPGAELVKPGAPVKLSCKASGYTFTSYWMNWVKQRPGRGLEWIGRIDPSDSETHYNQKFKDKATLTVDKSSSTAYIQLSSLTSEDSAVYYCAKVGRGYFDYWGQGTTLTVSS
VL: NIVLTQSPASLAVSLGQRATISCRASESVESYGNSFIYWYQQKPGQAPKLLIYLASNLASGVPARFSGSGSRTDFTLTIDPVEADDAATYYCQQNNEDPYTFGGGTKLEIKR
binds: [1] | [2] | [3]

B2: TMC2206, humanized hIgG4 anti-alpha 2 integrin antibody (the comparator) (antibody, V domains shown)
VH: QVQLQESGPGLVKPSETLSLTCTVSGFSLTNYGIHWIRQPPGKGLEWLGVIWARGFTNYNSALMSRLTISKDNSKNQVSLKLSSVTAADTAVYYCARANDGVYYAMDYWGQGTLVTVSS
VL: DFVMTQSPAFLSVTPGEKVTITCSAQSSVNYIHWYQQKPDQAPKKLIYDTSKLASGVPSRFSGSGSGTDYTFTISSLEAEDAATYYCQQWTTNPLTFGQGTKVEIKR
binds: [4] | [5] | [6]
